Here are results for 33 sequences from paper PMC7862700.

By UniProt entry, the sequences of proteins in these tests, tags left out. Where a name states a change or a piece, a line headed by the entry shows the natural chain unless it says otherwise.
UniProt O43186: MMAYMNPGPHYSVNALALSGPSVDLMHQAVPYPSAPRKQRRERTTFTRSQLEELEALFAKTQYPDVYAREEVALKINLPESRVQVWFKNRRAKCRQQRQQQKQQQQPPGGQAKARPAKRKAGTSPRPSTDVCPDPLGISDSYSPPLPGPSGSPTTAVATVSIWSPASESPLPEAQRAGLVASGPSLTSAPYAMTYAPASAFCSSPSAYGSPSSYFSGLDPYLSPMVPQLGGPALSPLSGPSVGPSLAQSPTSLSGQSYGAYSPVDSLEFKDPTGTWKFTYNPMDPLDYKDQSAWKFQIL

The entries are a selection whose mix differs from that of the whole data set. At the low end of the ranking the order means little.

Assay in all cases: DAPPL (digital affinity profiling via proximity ligation, sequencing)
Details in all cases: 10 mM Tris-HCl pH 7.5, 50 mM NaCl, 1 mM DTT, 4% glycerol, room temperature, 30 min; GST-TFs on glutathione beads, 16-mer random dsDNA library, 0.1% …; high values mean tight binding; double strand, one strand shown; scale: fold enrichment (6-mer frequency, TF over GST control)

One experiment has as its target CRX (UniProt O43186).
The target of the next experiment is T1, ELF5 (UniProt Q9UKW6-2).
T1 sequence: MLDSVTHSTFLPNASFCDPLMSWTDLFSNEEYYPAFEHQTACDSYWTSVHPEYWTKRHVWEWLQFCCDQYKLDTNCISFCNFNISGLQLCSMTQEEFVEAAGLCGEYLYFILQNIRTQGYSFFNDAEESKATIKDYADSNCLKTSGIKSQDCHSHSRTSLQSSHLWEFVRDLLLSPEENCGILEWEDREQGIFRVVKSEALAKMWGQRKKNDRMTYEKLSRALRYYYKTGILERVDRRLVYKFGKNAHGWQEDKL

The next experiment addresses T2, FEV (UniProt Q99581).
T2 sequence: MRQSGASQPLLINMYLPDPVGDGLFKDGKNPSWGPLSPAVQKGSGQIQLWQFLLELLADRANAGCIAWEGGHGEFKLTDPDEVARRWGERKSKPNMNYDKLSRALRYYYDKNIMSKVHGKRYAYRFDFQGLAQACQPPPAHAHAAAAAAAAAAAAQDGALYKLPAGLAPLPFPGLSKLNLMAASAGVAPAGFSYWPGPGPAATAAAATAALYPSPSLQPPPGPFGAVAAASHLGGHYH

Turning to CGGCCG, the binding signal in the experiment with CRX came to 0.584; with ELF5, 0.764.

As to GGCCAC, the binding signal with CRX worked out at 0.683; with ELF5, 0.927.

As to GACTCA, the figures for the binding signal in the experiment with CRX and in the experiment with ELF5 were 0.885 and 0.973, respectively.

As for ATCGAG, the values for the binding signal in the experiment with FEV, with CRX and in the experiment with ELF5 were 0.826, 0.968 and 0.779, respectively.

In the case of ACGAGT, the binding signal was 0.684 with FEV, 0.683 with CRX and 0.617 with ELF5.

As for GAGAGC, the binding signal with FEV is 0.363; with CRX it was 0.319; with ELF5 it was 0.334.

For the sequence CGGGGG, the binding signal was determined as 0.456 with FEV, 0.395 with CRX and 0.444 in the experiment with ELF5.

As for TCGGGT, the binding signal in the experiment with FEV turned out to be 0.558; with CRX it was 0.61; with ELF5 it was 0.58.

On to GCAAGT, for which the binding signal in the experiment with FEV came to 0.802; with CRX, 0.619; with ELF5, 0.826.

For the sequence CGTGCA, the binding signal in the experiment with FEV was 0.647; with CRX, 0.51; with ELF5, 0.642.

CGGACA: the figures for the binding signal with CRX and with ELF5 were 0.452 and 0.82, respectively.

As to AGGACT, the values for the binding signal in the experiment with CRX and in the experiment with ELF5 were 0.929 and 0.954, respectively.

For GGTGTC, the binding signal came to 0.786 in the experiment with FEV, 0.479 with CRX and 0.725 with ELF5.

As for CGTAAG, the binding signal in the experiment with FEV came to 0.684; with CRX, 0.954; in the experiment with ELF5, 0.799.

For the sequence AAGGAG, the binding signal with FEV amounted to 0.324; in the experiment with CRX, 0.325; with ELF5, 0.345.

In the case of TGCAGT, the binding signal came to 0.782 with FEV, 0.665 in the experiment with CRX and 0.78 with ELF5.

As for GACAAG, the binding signal was found to be 0.81 in the experiment with FEV, 0.642 in the experiment with CRX and 0.751 in the experiment with ELF5.

Turning to CAGAGT, the results for the binding signal with FEV, with CRX and in the experiment with ELF5 were 0.609, 0.512 and 0.605, respectively.

For the sequence GGTGCG, the binding signal with FEV turned out to be 0.556; in the experiment with CRX it was 0.414; with ELF5 it was 0.549.

Regarding GTGTGC, the figures for the binding signal in the experiment with FEV, with CRX and with ELF5 were 0.883, 0.592 and 0.829, respectively.

With CAGCGA, the values for the binding signal with FEV, with CRX and with ELF5 were 0.834, 0.775 and 0.784, respectively.

With GAGGTA, the values for the binding signal in the experiment with FEV, in the experiment with CRX and with ELF5 were 0.645, 0.57 and 0.682, respectively.

Consider CCATGT, for which the binding signal in the experiment with FEV was 0.81; with CRX, 0.642; in the experiment with ELF5, 0.727.

In the case of AGCGAG, the figures for the binding signal with FEV, in the experiment with CRX and with ELF5 were 0.624, 0.578 and 0.578, respectively.

On to GGACCG, for which the binding signal was 0.563 with CRX and 0.808 in the experiment with ELF5.

Regarding CTGAGA, the binding signal came out at 0.774 with FEV, 0.821 with CRX and 0.735 with ELF5.

On to CAGTAA, for which the binding signal with FEV is 0.713; in the experiment with CRX, 0.862; with ELF5 it was 0.68.

Turning to GACGTG, the binding signal in the experiment with FEV worked out at 0.336; with CRX, 0.238; in the experiment with ELF5, 0.327.

The sequence CGGTAC showed a binding signal in the experiment with CRX of 0.582.

CGGTCC: the figures for the binding signal with CRX and in the experiment with ELF5 were 0.566 and 0.9, respectively.

With GCTGTG, the values for the binding signal in the experiment with FEV, with CRX and in the experiment with ELF5 were 0.638, 0.555 and 0.555, respectively.

Consider GGTCAG, for which the binding signal was found to be 0.539 with FEV, 0.429 with CRX and 0.519 in the experiment with ELF5.

TGCGAG: the binding signal with FEV came out at 0.856; with CRX it was 0.876; in the experiment with ELF5, 0.856.
